Source: PubChem BioAssay AID1508597 (Cure First, 2020)

- Assay: 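Survival screen with siRNA in ovarian cancer cells derived from patients, with or without rucaparib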 (primary screen)
- Cells: human ovarian carcinoma lines grown from tumours: OCI-P5x (papillary serous) and OCI-C5x (clear cell)
- Reagent: siRNA pool against human genes, 1.25 pmol siRNA per well
- Duration: 72 h or 96 h, depending on the cell culture
- Challenge: rucaparib 20 µM (about IC30) or vehicle, present until read-out
- Measured: 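ATP luminescence measured at 72 or 96 h according to the culture, then normalised and expressed as percent viability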
- Scale: viability, normalised: higher = more viable cells remaining
- Call rule: 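Active when normalised viability falls below 80 percent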
- Calls: active = viability under 80%; inactive = viability 80% or more
Here is an unselected part of about 2,100 reagents tested. 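Calls flag viability under 80% in either arm, not effects specific to rucaparib; the reference for percent is not stated.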 A number with no mark means an inactive call. A reagent listed more than once was tested more than once; the source does not tell the runs apart. Not stated in the record: the 100% reference.

| target | rucaparib or vehicle | cell line | technical replicate | viability, normalised (%) |
| --- | --- | --- | --- | --- |
| BACC1 | Rucaparib | OCI-C5x (clear cell) | 1 | 76.8 (active) |
| BACC1 | Rucaparib | OCI-C5x (clear cell) | 1 | 62.9 (active) |
| BACC1 | Rucaparib | OCI-C5x (clear cell) | 2 | 42.2 (active) |
| BACC1 | Rucaparib | OCI-C5x (clear cell) | 2 | 49.4 (active) |
| BACC1 | Rucaparib | OCI-C5x (clear cell) | 3 | 53.9 (active) |
| BACC1 | Rucaparib | OCI-C5x (clear cell) | 3 | 59.4 (active) |
| BACC1 | Rucaparib | OCI-P5x (serous) | 1 | 92.6 |
| BACC1 | Rucaparib | OCI-P5x (serous) | 1 | 67.9 (active) |
| BACC1 | Rucaparib | OCI-P5x (serous) | 2 | 55.6 (active) |
| BACC1 | Rucaparib | OCI-P5x (serous) | 2 | 90.1 |
| BACC1 | Rucaparib | OCI-P5x (serous) | 3 | 78.7 (active) |
| BACC1 | Rucaparib | OCI-P5x (serous) | 3 | 92.3 |
| BACC1 | Vehicle | OCI-C5x (clear cell) | 1 | 53.8 (active) |
| BACC1 | Vehicle | OCI-C5x (clear cell) | 1 | 60.7 (active) |
| BACC1 | Vehicle | OCI-C5x (clear cell) | 2 | 32.5 (active) |
| BACC1 | Vehicle | OCI-C5x (clear cell) | 2 | 59.9 (active) |
| BACC1 | Vehicle | OCI-C5x (clear cell) | 3 | 41.8 (active) |
| BACC1 | Vehicle | OCI-C5x (clear cell) | 3 | 53.6 (active) |
| BACC1 | Vehicle | OCI-P5x (serous) | 1 | 85.6 |
| BACC1 | Vehicle | OCI-P5x (serous) | 1 | 61 (active) |
| BACC1 | Vehicle | OCI-P5x (serous) | 2 | 55.3 (active) |
| BACC1 | Vehicle | OCI-P5x (serous) | 2 | 77.7 (active) |
| BACC1 | Vehicle | OCI-P5x (serous) | 3 | 97.6 |
| BACC1 | Vehicle | OCI-P5x (serous) | 3 | 63.4 (active) |
| SETDB2 | Rucaparib | OCI-C5x (clear cell) | 1 | 34.1 (active) |
| SETDB2 | Rucaparib | OCI-C5x (clear cell) | 2 | 37.7 (active) |
| SETDB2 | Rucaparib | OCI-C5x (clear cell) | 3 | 30 (active) |
| SETDB2 | Rucaparib | OCI-P5x (serous) | 1 | 41.8 (active) |
| SETDB2 | Rucaparib | OCI-P5x (serous) | 2 | 40.3 (active) |
| SETDB2 | Rucaparib | OCI-P5x (serous) | 3 | 44.6 (active) |
| SETDB2 | Vehicle | OCI-C5x (clear cell) | 1 | 32.7 (active) |
| SETDB2 | Vehicle | OCI-C5x (clear cell) | 2 | 25.1 (active) |
| SETDB2 | Vehicle | OCI-C5x (clear cell) | 3 | 30.8 (active) |
| SETDB2 | Vehicle | OCI-P5x (serous) | 1 | 40 (active) |
| SETDB2 | Vehicle | OCI-P5x (serous) | 2 | 50.4 (active) |
| SETDB2 | Vehicle | OCI-P5x (serous) | 3 | 60.5 (active) |

The list goes on (2 carried over from the part before).
| target | rucaparib or vehicle | cell line | technical replicate | viability, normalised (%) |
| --- | --- | --- | --- | --- |
| SETDB2 | Vehicle | OCI-P5x (serous) | 2 | 50.4 (active) |
| SETDB2 | Vehicle | OCI-P5x (serous) | 3 | 60.5 (active) |
| POLE | Rucaparib | OCI-C5x (clear cell) | 1 | 62.6 (active) |
| POLE | Rucaparib | OCI-C5x (clear cell) | 2 | 38.9 (active) |
| POLE | Rucaparib | OCI-C5x (clear cell) | 3 | 47.8 (active) |
| POLE | Rucaparib | OCI-P5x (serous) | 1 | 86.8 |
| POLE | Rucaparib | OCI-P5x (serous) | 2 | 103 |
| POLE | Rucaparib | OCI-P5x (serous) | 3 | 81.1 |
| POLE | Vehicle | OCI-C5x (clear cell) | 1 | 47.3 (active) |
| POLE | Vehicle | OCI-C5x (clear cell) | 2 | 42.2 (active) |
| POLE | Vehicle | OCI-C5x (clear cell) | 3 | 44.5 (active) |
| POLE | Vehicle | OCI-P5x (serous) | 1 | 72.7 (active) |
| POLE | Vehicle | OCI-P5x (serous) | 2 | 69.2 (active) |
| POLE | Vehicle | OCI-P5x (serous) | 3 | 63.1 (active) |
| FANCG | Rucaparib | OCI-C5x (clear cell) | 1 | 75.3 (active) |
| FANCG | Rucaparib | OCI-C5x (clear cell) | 2 | 80.4 |
| FANCG | Rucaparib | OCI-C5x (clear cell) | 3 | 72.9 (active) |
| FANCG | Rucaparib | OCI-P5x (serous) | 1 | 130 |
| FANCG | Rucaparib | OCI-P5x (serous) | 2 | 130 |
| FANCG | Rucaparib | OCI-P5x (serous) | 3 | 119 |
| FANCG | Vehicle | OCI-C5x (clear cell) | 1 | 86.3 |
| FANCG | Vehicle | OCI-C5x (clear cell) | 2 | 74.6 (active) |
| FANCG | Vehicle | OCI-C5x (clear cell) | 3 | 80.2 |
| FANCG | Vehicle | OCI-P5x (serous) | 1 | 132 |
| FANCG | Vehicle | OCI-P5x (serous) | 2 | 119 |
| FANCG | Vehicle | OCI-P5x (serous) | 3 | 120 |
